Experimental data taken from PMC7126824 (European Journal of Medicinal Chemistry, 2011).
pIC50: −log10 of the molar value.

System: HeLa (human cervix carcinoma) cells
Experiment: Cytostatic activity: inhibition of tumor cell proliferation
Assay type: cell-based
Details: read-out: IC50 (50% inhibitory concentration)
Procedure, shortened: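 Exponentially growing tumour cells were seeded in 96-well plates with a range of test-compound concentrations: CEM lymphocytes at 75,000 cells/well for 3 days, HeLa cervix carcinoma cells at 20,000 cells/well for 4 days. Viable cells were counted with a Coulter counter. The 50% value is the concentration inhibiting tumour cell proliferation by 50%.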

Q: How did the pIC50 turn out when `N.N.[Cl][Pt][Cl]` [cisplatinum] was run?
A: 6.66
